{"sequences": {"note": "The chains behind the UniProt entries cited, without tags or fusion partners.", "UniProt Q8C6L5": "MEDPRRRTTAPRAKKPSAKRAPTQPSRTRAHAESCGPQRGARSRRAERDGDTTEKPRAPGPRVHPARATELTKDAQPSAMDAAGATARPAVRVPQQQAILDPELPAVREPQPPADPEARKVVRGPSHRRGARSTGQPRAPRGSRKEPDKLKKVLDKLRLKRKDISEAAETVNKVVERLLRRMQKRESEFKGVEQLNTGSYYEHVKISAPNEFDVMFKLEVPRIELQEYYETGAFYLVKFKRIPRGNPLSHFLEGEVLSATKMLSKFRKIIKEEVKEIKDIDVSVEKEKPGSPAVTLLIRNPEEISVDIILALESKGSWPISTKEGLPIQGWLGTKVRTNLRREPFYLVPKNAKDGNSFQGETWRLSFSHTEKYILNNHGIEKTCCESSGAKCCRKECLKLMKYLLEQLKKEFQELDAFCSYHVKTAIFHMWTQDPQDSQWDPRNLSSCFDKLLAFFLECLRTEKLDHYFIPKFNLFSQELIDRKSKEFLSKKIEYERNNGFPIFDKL"}, "source": "paper PMC12667517", "about": "“Gigaxonin Potentiates Antiviral Innate Immune Responses by Targeting cGAS and TREX1” (Advanced Science, 2025)", "target": "mouse cGAS (cyclic GMP-AMP synthase), endogenous in RAW264.7 (mouse (endogenous in RAW264.7)) (UniProt Q8C6L5)", "assay": "affinity purification with mass spectrometry; co-IP from RAW264.7 cells with an anti-mouse cGAS antibody, then mass spectrometry; HSV-1-infected group", "note": "No constants are given. Whether binding was seen depends on the method and setting. In cells and extracts the contact can be indirect. These calls come from enrichment with a bait or labelling near it, and not all partners need be listed.", "data": [{"binder": "murine gigaxonin, endogenous in RAW264.7 (protein, UniProt Q8CA72 1-597) MAEGSAVSDPQHAARLLRALSSFREEARFCDAHLVLDGEEIPVQKNILAAASPYIRTKLNYNPPKDDGSTYKIELEGISVMVMREILDYIFSGQIRLNEDTIQDVVQAADLLLLTDLKTLCCEFLEGCIAAENCIGIRDFALHYCLHHVHYLATEYLETHFRDVSSTEEFLELSPQKLKEVISLEKLNVGNERYVFEAVIRWIAHDVEMRKVHMKDVMSALWVSGLDSSYLREQMLNEPLVREIVKECSNIPLSQPQQGEAMLASFKPRGYSECIVTIGGEERVSRKPTAAMRCMCPLYDPNRQLWIELAPLSMPRINHGVLSAEGFLFVLGGQDENKQTLSSGEKYDPDANTWTALPPMHEARHNFGIVEIDGMLYILGGEDGDRELISMECYDIYSKTWTKQPDLTMVRKIGCYAAMKKKIYAMGGGSYGKLFESVECYDPRTQQWTAICPLKERRFGAVACGVAMELYVFGGVRSREDIQGSEMVTCKSEFYHDEFKRWIYLNDQNLCIPASSSFVYGAVPIGASIYVIGDLDTGTNYDYVREFKRSTGTWHHTKPLLPSDLRRTGCAALRIANCKLFRLQLQQGLFRIRVHSP", "values": [{"measurement": "binding", "value": "binds"}]}]}
